pIC50: −log10 of the molar value. Some results were stated once for a whole list of compounds, not compound by compound. For at least one compound, name, drawing or mass did not settle the structure.
Test system: murine fibroblast cell line 3T3 (p53 wild type control)
Assay: Growth inhibition assay on isogenic murine fibroblast lines (96-well MTS)
Assay type: cell-based
Conditions: p53 wild type cells
Procedure: None of these compounds have been previously reported for their selective activity in cells with a mutant p53. To provide further evidence for their specificity, growth inhibition assays were performed on isogenic cell lines. Previously developed murine fibroblast cell line (10)3 (p53 null) and 10(3) with transfection of cytomegalovirus-human mutant p53 constructs (273, 248 and 175) (Dittmer, D., et al., Nature Genetics, 1993. 4(1): p. 42-6) were used as cases, while the murine fibroblast cell line 3T3 was used as a p53 wild type control.
The compounds were validated using several different cell line systems. The first system used was a mouse embryonic fibroblast (MEF) system in which a p53 null MEF line, 10(3), was used as a parental line from which several stable CMV-mutant p53 transfectants were derived. The p53 mutations investigated were the “hot spot” mutants 175, 248, and 273. NIH3T3 fibroblasts were used as a p53 wild type control.

With `CC(=NNC(=S)N(C)C)c1ccccn1` [NSC319725] as the molecule, how does the pIC50 read?
Its pIC50 is < 6.00.
